# Screen size: about 300,000 compounds; about 5,400 (1.8%) were called active. The inconclusive results got no clear call from the source; some entries with a clear call stand among them for comparison. Calls come from the whole dose curve; tested in HEK293 cells. A potency beside an inconclusive call is a rough fit, not a confirmed value.
# Experiment: qHTS for inhibitors of binding or entry into cells for Marburg Virus
# Conditions: Marburg virus pseudotyped entry inhibition, cell reporter; activity change, negative = inhibition: at 37.8 µM (top of the series) unless noted
# % is set by controls: 0 for no effect and ±100 for the full control effect; potency is the fitted concentration of half-maximal effect.
Structure (SMILES),"activity change, negative = inhibition",Potency
Cc1cccc(N(C)C(=O)c2cc3c(=O)oc4ccc(C)cc4c3s2)c1,inactive: 0.149% [at 46.1 µM],
O=C(c1cccs1)N1CCN(Cc2cn[nH]c2-c2ccc(F)cc2F)CC1,,"inconclusive: 5.62 µM [activator, single point]"
COc1ccccc1C(=O)Nc1ccc(C(=O)/C=C/c2cccs2)cc1,,"inconclusive: 15.8 µM [inhibitor, single point]"
Cc1cc(/C=C(/C#N)c2nc3ccccc3[nH]2)c(C)n1-c1cc(C(=O)O)cc(C(=O)O)c1,inactive: 14.1% [at 46.1 µM],
O=C(NCC1CCCO1)c1sc2cc(Cl)ccc2c1Cl (configuration not stated),inactive: 18.5%,
CCCN1CCN(C(=O)Cn2ncc3c4ccccc4n(Cc4cccc(Cl)c4)c3c2=O)CC1,inactive: -2.68% [at 46.1 µM],
O=C(Nc1nc(-c2cc(Cl)sc2Cl)cs1)c1cccs1,,"inconclusive: 35.5 µM [inhibitor, single point]"
CC1CCCN(C(=O)CCNS(=O)(=O)c2ccc(Br)cc2)C1 (configuration not stated),inactive: 2.47%,
CC(C)c1ccc(S(=O)(=O)N2CCN(C(C)C(=O)N3CCCC3)CC2)cc1 (configuration not stated),inactive: 17.5%,
O=C(CCCn1c(=O)[nH]c2ccsc2c1=O)NC1CCCCC1,,"inconclusive: 5.62 µM [activator, single point]"
O=c1c2c(nc3n1CCCCC3)sc1c(O)c(Br)ccc12,,"inconclusive: 11.6 µM [inhibitor, partial curve]"
COc1ccc(/C=N\NC(=O)COc2ccccc2Cl)cc1Cn1nc(C)cc1C,inactive: -16.7% [at 46.1 µM],
Cc1cccc(Nc2nc(-c3ccc4c(c3)OCCO4)cs2)c1,,"inconclusive: 15.8 µM [inhibitor, single point]"
CC(=O)NCCC(=O)Nc1cc(S(=O)(=O)N2CCOCC2)ccc1Oc1ccc(F)cc1,inactive: 17.2% [at 46.1 µM],
O=C(Nc1ccc(Cl)cc1)c1ccc(OCC2CCCO2)cc1 (configuration not stated),,"inconclusive: 14.1 µM [inhibitor, single point]"
COc1cccc(N2CCN(c3ncnc4c3[nH]c3ccc(F)cc34)CC2C)c1 (configuration not stated),,"inconclusive: 4.47 µM [inhibitor, full curve, poor fit]"
CCN(CC(=O)NC(=O)NCc1ccco1)Cc1nc2ccccc2c(=O)[nH]1,,"inconclusive: 5.62 µM [activator, single point]"
Cc1cccnc1NC(=O)C(C)Oc1ccccc1 (configuration not stated),inactive: -2.84%,
CC(=S)/C=C1\Sc2ccccc2N1C,,"inconclusive: 29.1 µM [activator, single point]"
CCN(CC)S(=O)(=O)c1ccc(C(=O)NCCc2ccccn2)cc1,inactive: 14.9%,
CC(C)CCN1C(=O)c2ccccc2CC1(C)C(=O)NC1CCCCC1 (configuration not stated),inactive: -19.6% [at 46.1 µM],
COc1ccc(OC)c(-c2csc(NC(=O)Cc3ccc(OC)c(OC)c3)n2)c1,inactive: 3.71% [at 46.1 µM],

# Looked up above.
# Value of CC(=S)/C=C1\Sc2ccccc2N1C under Potency: inconclusive: 29.1 µM [activator, single point]
# Value of CCCN1CCN(C(=O)Cn2ncc3c4ccccc4n(Cc4cccc(Cl)c4)c3c2=O)CC1 under activity change, negative = inhibition: inactive: -2.68% [at 46.1 µM]

# Source: PubChem BioAssay AID540276 (National Center for Advancing Translational Sciences (NCATS), 2011)
